According to PubChem BioAssay AID2685 (National Center for Advancing Translational Sciences (NCATS), 2010):
This is one part of the list. The main result of the screen is listed elsewhere. These columns were measured beside it and carry no call. Compounds called inactive in the main read-out are mostly missing here. The note in brackets gives the kind of curve behind each potency; many fits are weak.

Assay: qHTS Assay for Lipid Storage Modulators in Drosophila S3 Cells;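 on cell number change: cells counted by Cell Tracker Red CMTPX staining in the red channel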
Settings: BODIPY lipid droplet fluorescence, 18-24 h; for cell number change: measured here: cell count max response, cells fed with added oleic acid
Procedure, shortened: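 Drosophila S3 cells loaded with oleic acid (400 uM, as added) and compounds at several concentrations; lipid droplets imaged by 488-nm laser-scanning cytometry, 500–530 nm intensity and object ratio to cell channel. Percent activity normalized to 20 uM Triacsin C.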

[1] = measured here: lipid fluorescence (Fed channel) AC50, cells fed with added oleic acid
[2] = measured here: cell number channel AC50, cells fed with added oleic acid

For `CCn1c(SCC(=O)N2CCCCC2C)nnc1-c1ccco1` (configuration not stated), the cell number change was -13.2% and the AC50 [1] was 35.5 µM [falling, single point].
With `CC(C)CN(C(=O)COC(=O)c1cnc(Cl)c(Cl)c1)c1c(N)n(Cc2ccccc2)c(=O)[nH]c1=O` the cell number change was 8.33%, the AC50 [2] was 0.291 µM [falling, full curve, poor fit] and the AC50 [1] was 6.51 µM [falling, partial curve, poor fit].
With `O=C(c1ccc(CSc2nc3ccncc3[nH]2)cc1)N1CCCCCC1` the cell number change was -11.6% and the AC50 [1] was 0.651 µM [falling, full curve, poor fit].
`O=C(CC1C(=O)CCCC1=O)c1ccccc1` showed a cell number change of 41.8%.
Compound `COCCOC(=O)c1c(C)oc2ccc(OCC=C(C)C)cc12` has a cell number change of 3.6%.
In the case of `COc1ccccc1N1CCN(C(=O)c2cccc(Oc3ccccc3)c2)CC1`, the cell number change is reported as 30.5%, the AC50 [2] is reported as 29.1 µM [rising, single point] and the AC50 [1] is reported as 29.1 µM [rising, single point].
With `CCC1(c2ccccc2)NC(=O)N(CC(=O)Nc2cc(Cl)ccc2N2CCN(C)CC2)C1=O` (configuration not stated) the cell number change was 13.5%, the AC50 [2] was 0.116 µM [falling, full curve, poor fit] and the AC50 [1] was 23.1 µM [rising, single point].
With `Cc1ccc(NC(=O)C(=O)N2CCCC2)cc1Cl` the AC50 [1] was 29.1 µM [rising, single point].
In the case of `CCOCCn1c(N2CCN(c3ccc(OC)cc3)CC2)nc2c1c(=O)n(C)c(=O)n2C`, the cell number change is reported as -7.91% and the AC50 [2] is reported as 0.092 µM [rising, full curve, poor fit].
For `O=C(CN1CCOCC1)Nc1nc(-c2ccc3c(c2)CCN3S(=O)(=O)c2ccccc2)cs1`, the cell number change was -35.4% and the AC50 [2] was 7.31 µM [falling, partial curve].
With `S=C(Nc1cc(Cl)cc(Cl)c1)N1CCN(c2ccccn2)CC1` the cell number change was 15.3% and the AC50 [1] was 23.1 µM [rising, partial curve].
Work on `CNC(=O)Nc1ccc2nc(C)oc2c1` yielded a cell number change of -5.42%.
With `Oc1ccc(-c2csc(Nc3ccccn3)n2)c(O)c1` the cell number change was -58.8% and the AC50 [2] was 13 µM [falling, partial curve].
For `Cc1csc(=O)n1CCC(=O)OCC(=O)c1c(N)n(CC(C)C)c(=O)n(C)c1=O`, the AC50 [2] was 2.06 µM [rising, partial curve, poor fit].
For `COc1ccccc1NC(=O)CSc1nc(SC)ns1`, the cell number change was 20.8% and the AC50 [1] was 0.259 µM [rising, partial curve].
For `OCCc1c[nH]c2cc(F)ccc12`, the cell number change was 34.3% and the AC50 [1] was 0.651 µM [rising, partial curve].
With `CCN(CC)C(=O)Cn1nnc(-c2ccc(C)o2)n1` the cell number change was 0.068% and the AC50 [1] was 1.03 µM [falling, full curve, poor fit].
